Measurements taken from paper PMC3237451, “Missense Mutation in the Second RNA Binding Domain Reveals a Role for Prkra (PACT/RAX) during Skull Development”.
Substitutions are numbered along the chain they refer to. Names and notes keep the numbering of the source. No constants are given. Whether binding was seen depends on the method and setting. Binding seen in cells or lysates may run through a third protein. Some binding calls cover weakened binding; strength is not graded here. Sequences can lack the tags named with a protein.

How the values were obtained:
[1] = molecular target: T1, His-RAX (WT, recombinant 6xHis-tagged RAX) (mouse) (UniProt Q9WTX2); experiment: pull-down; 2 µg purified 6xHis-tagged WT or mutant RAX incubated with lysate of L929 cells expressing FLAG-RAX or FLAG-RAX (S130P) in 20 mM Tris-HCl, 150 mM NaCl, 10 mM imidazole, 10% glycerol; pulled down with Ni-NTA agarose; micrococcal nuclease treatment (37°C, 30 min) to remove dsRNA-facilitated interactions; western blot; only the target purified
T1 sequence: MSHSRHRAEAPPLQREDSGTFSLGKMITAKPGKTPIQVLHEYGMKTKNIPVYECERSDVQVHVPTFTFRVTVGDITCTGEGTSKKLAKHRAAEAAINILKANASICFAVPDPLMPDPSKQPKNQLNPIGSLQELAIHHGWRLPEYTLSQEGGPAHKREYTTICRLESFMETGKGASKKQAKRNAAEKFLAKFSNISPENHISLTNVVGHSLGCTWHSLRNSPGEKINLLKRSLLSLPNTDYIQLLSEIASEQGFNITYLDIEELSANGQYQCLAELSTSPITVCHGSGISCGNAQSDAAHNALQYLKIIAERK

[2] = molecular target: T2, His-RAX (S130P) (Mus musculus (cDNA from L929 cells), UniProt Q9WTX2 1-313, S130P); experiment: as above
T2 sequence: T1 sequence with S130P

[3] = molecular target: T3, FLAG-RAX (S130P) (mouse) (UniProt Q9WTX2); experiment: co-IP; FLAG-RAX immunoprecipitated with anti-FLAG M2 affinity gel from lysates (Triton X-100 lysis buffer) of unstressed or sodium arsenite treated L929 cells; micrococcal nuclease treatment (37°C, 30 min); western blot for endogenous PKR
T3 sequence: T1 sequence with S130P

[4] = molecular target: T4, FLAG-RAX (WT) (mouse) (UniProt Q9WTX2); experiment: as above
T4 sequence: T1 sequence

B1: FLAG-RAX (WT) (protein, UniProt Q9WTX2 1-313)
chain: T1 sequence
For B1, the binding [1] was “binds”.

B2: FLAG-RAX (S130P) (protein, UniProt Q9WTX2 1-313)
chain: T1 sequence with S130P
For B2, the binding [2] was “binds”.

B3: PKR (interferon inducible, double-stranded RNA dependent protein kinase) (enzyme, UniProt Q03963 1-515)
chain: MASDTPGFYMDKLNKYRQMHGVAITYKELSTSGPPHDRRFTFQVLIDEKEFPEAKGRSKQEARNAAAKLAVDILDNENKVDCHTSASEQGLFVGNYIGLVNSFAQKKKLSVNYEQCEPNSELPQRFICKCKIGQTMYGTGSGVTKQEAKQLAAKEAYQKLLKSPPKTAGTSSSVVTSTFSGFSSSSSMTSNGVSQSAPGSFSSENVFTNGLGENKRKSGVKVSPDDVQRNKYTLDARFNSDFEDIEEIGLGGFGQVFKAKHRIDGKRYAIKRVKYNTEKAEHEVQALAELNHVNIVQYHSCWEGVDYDPEHSMSDTSRYKTRCLFIQMEFCDKGTLEQWMRNRNQSKVDKALILDLYEQIVTGVEYIHSKGLIHRDLKPGNIFLVDERHIKIGDFGLATALENDGKSRTRRTGTLQYMSPEQLFLKHYGKEVDIFALGLILAELLHTCFTESEKIKFFESLRKGDFSNDIFDNKEKSLLKKLLSEKPKDRPETSEILKTLAEWRNISEKKKRNTC
With B3 the binding [3] was “binds” and the binding [4] was “binds”.
